Library screening results

From ChEMBL document CHEMBL3988442, “University of Dundee, Small-Polar-MMV Screening Library” (2021).

Values are the deposited “Percent Effect”, in %.
The record does not define 0% and 100%; most values in the screen are far below 50% and negative numbers occur (in some assays of this library far below -100).
The compounds are a random part of those screened.
Two or more numbers in one place are separate tests of the same structure; such repeats can differ widely.

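Viability assay of Plasmodium falciparum sporozoites; the read-out is not stated. The concentration is filed as 10 mM, unlikely as a test dose, so the dose is not known. The record gives no direction; compounds that gave an IC50 in retests scored well above the rest, so higher reads as lower viability. Strong results were mostly tested again. Of about 34,000 compounds tested this way, about 280 (0.84%) reached 50% or more in at least one test.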

| SMILES | effect |
|---|---|
| `Cc1oc(C(=O)O)cc1S(=O)(=O)Nc1ccc(Br)cc1Cl` | 0.2602% |
| `CC1CCc2nn(CCNC(=O)C3CCCC3)c(=O)cc2C1` (stereo not drawn) | -3.334% and 0.06458% and 1.43% |
| `c1cc(CNCc2ccnc(N3CCOCC3)c2)c2c(c1)OCCO2` | 4.152% |
| `Cc1ccc(C)c(OCCN2CCC(N3CCNC3=O)CC2)c1` | 8.271% |
| `Cc1c(C(=O)NC2CCCOC2)nnn1-c1ccccc1` (stereo not drawn) | 3.521% |
| `COCC1c2nnn(C)c2CCN1C(=O)c1ccc(OC)c(F)c1` (stereo not drawn) | -11.56% |
| `O=C(NC1CC1)N1CCCC2(CCNC2=O)C1` (stereo not drawn) | -4.448% |
| `O=C(O)C(F)(F)F.[H][C@@]12CCN(CCc3ccccc3)C[C@]1([H])O[C@@H](C(=O)NCCOC)C2` | -5.122% |
| `O=C(O)C(F)(F)F.[H][C@@]12C[C@@H](C(=O)N3CCC(C)CC3)CN(Cc3ccoc3)[C@]1([H])CCO2` | 9.091% |
| `COc1ccc(C2CNCCN2C(=O)c2cccc3cccnc23)cc1` (stereo not drawn) | -6.329% |
| `[H][C@]12CCN(C(=O)Nc3ccccc3C)CC[C@@]1([H])S(=O)(=O)N(CC)C2` | -0.3422% |
| `O=C(O)C(F)(F)F.O=C(O)C(F)(F)F.[H][C@@]12COC[C@@H](CC(=O)NCC3CC3)[C@]1([H])CN(Cc1cccnc1)C2` | -1.798% |
| `COCCN1CCCC(O)(CN2CCCN(c3ncccn3)CC2)C1=O` (stereo not drawn) | -8.49% |
| `CN(C)c1cc(CNC(=O)c2cnccn2)ccn1` | -4.592% |
| `O=C(c1cccc(S(=O)(=O)NCCCc2ccco2)c1)N1CCOCC1` | -5.077% |
| `CCS(=O)(=O)N1CCC2(CCCC(=O)N2C)CC1` | 9.752% |
| `C=Cn1ncc(CN2CCc3nc(-c4ccncc4)nc(O)c3C2)c1C` | -10.34% |
| `CCCNc1cc(-c2c[nH]nc2C2CCN(C(=O)C3CCC3)C2)ccn1` (stereo not drawn) | 14.31% |
| `Cc1cc(C2CCCN(CCCS(N)(=O)=O)C2)n[nH]1` (stereo not drawn) | 7.741% |
| `C[C@@H]1CN(CCC(=O)NCc2ccccc2Cl)CC[C@@]1(O)C1CCC1` | -9.298% |
| `CCOCCn1nc(C)cc1C(=O)N1CC[C@@](O)(COC)C(C)(C)C1` | -3.421% |
| `O=C(c1ccc(-c2cccc3c2CCNC3)o1)N1CCOCC1` | -4.769% |
| `CN(C)CC(=O)N1CCCC2(CCC(=O)N(CCc3c[nH]cn3)C2)C1` (stereo not drawn) | 0.6543% |
| `COCCN(CC1CCCN(C2Cc3ccccc3C2)C1)C(=O)CSC` (stereo not drawn) | -11.53% |
| `CCOc1ccc(Cl)c(C(=O)N(C)C)n1` | -1.771% |
| `CCn1nc(CC(C)C)cc1C(=O)N1CC(c2ccncc2)C1` | -4.615% |
| `Cc1nc(CN2C(=O)CCC23CCN(Cc2ccoc2)CC3)cs1.O=C(O)C(F)(F)F.O=C(O)C(F)(F)F` | 8.432% |
| `CNC(=O)c1cn[nH]c1C1CCN(Cc2sccc2C)C1` (stereo not drawn) | -0.5921% |
| `COc1ccc(CC(=O)N2CCCC(c3nncn3C)C2)cc1` (stereo not drawn) | -11.15% |
| `COc1ccc(Br)c(C(=O)NCC2CCN(C(=O)c3ccoc3)CC2)c1` | 0.3542% |
| `CCC(C)N(Cc1cccnc1)Cc1cc2c(cc1Cl)OCO2` (stereo not drawn) | 3.395% |
| `Cc1cc(C)nc(Nc2cccc(C3CCCN(C(C)C)C3)n2)n1` (stereo not drawn) | 6.673% |
| `CN(C)CCn1ccc2cc(NC(=O)NCc3ncnn3C)ccc21` | 19.1% and 11.45% |
| `Cc1nsc(NCCNS(=O)(=O)c2cccc(Cl)c2)n1` | 3.301% and -2.628% |
| `CCOc1ccc(CNC(=O)N2CCCC(CO)C2)cc1F` (stereo not drawn) | -3.197% |
| `CC(C)c1nnc2n1CCN(CC(=O)Nc1nncs1)C2` | 1.156% |
| `Cc1ncc(CNC(=O)NCC(C)Oc2ccccc2F)s1` (stereo not drawn) | -1.817% |
| `Cc1cc(C)cc(OCCN(C)C(=O)NC(C)c2nncn2C)c1` (stereo not drawn) | 6.244% |
| `Cc1cnn(CC2CCCCN2C(=O)c2ccc3nncn3c2)c1` (stereo not drawn) | -1.84% |
| `CC1CN(Cc2nccn2C)CCN1c1ccc2nncn2n1` (stereo not drawn) | 14.72% |
| `CCC(=O)N1CCC(c2nnc(Cn3cncn3)n2C2CC2)CC1` | -3.359% |
| `CCOCC1c2c(cnn2C)CCN1C(=O)c1cc(C)on1.O=C(O)C(F)(F)F` (stereo not drawn) | 15.94% |
| `O=C(Cn1cc(I)cn1)NCC1CCC1` | -0.8174% |
| `CC(NC(=O)NCCCn1cccn1)c1ccc2c(c1)NC(=O)CO2` (stereo not drawn) | 5.345% |
| `CNc1nc(CNC(=O)Nc2cccc(C)c2Cl)cs1` | -2.946% |
| `[H][C@@]12CC[C@H](Oc3ccccc3Cl)[C@]1([H])CN(C(=O)CN(C)C)C2` | -19.79% |
| `O=C(O)C(F)(F)F.O=C(O)C(F)(F)F.O=S(=O)(c1ccccc1)N1CCC2(CCCN2Cc2cccnc2)C1` (stereo not drawn) | 5.584% |
| `Cn1cc(CN2CCCC3(CCN3S(C)(=O)=O)C2)cn1` (stereo not drawn) | 4.637% |
| `CNC(=O)c1ccc(C2CN(Cc3ccc(F)cc3)CCO2)nc1` (stereo not drawn) | 5.102% |
| `O=C(CC1CC1)N1CCC2(CC1)CN(c1ncccn1)CCO2` | -19.95% |
| `Cc1ccsc1CNCC1CCCN1c1cccnn1` (stereo not drawn) | 22.74% |
| `O=C(CCc1cccs1)N1CCCC(n2ccnc2)C1` (stereo not drawn) | 2.288% |
| `Cc1nc(CN2CCc3ncnc(C)c3CC2)cs1.O=C(O)C(F)(F)F` | -22.17% |
| `Cc1ccc(C(=O)Oc2cc(=O)n3cccc(C)c3n2)cc1` | -3.361% |
| `CN1CSC[C@H]1C(=O)N1CCC(CCc2ccccc2)CC1` | -8.475% and -6.045% |
| `Cc1cc(-c2cnc(N3CCN(C)CC3)nc2-c2ccc(C)s2)on1` | -2.725% |
| `Cc1cnn(CC2CN(c3nc4ccccc4o3)CCO2)c1` (stereo not drawn) | -4.831% |
| `CC1CCCCN1CCNC(=O)c1ccn(-c2cccc(F)c2)n1` (stereo not drawn) | 8.371% |
| `c1cnc(-c2nc(CN3CCCC(N4CCCC4)C3)cs2)nc1` (stereo not drawn) | 5.451% |
| `O=C(O)C(F)(F)F.[H][C@@]12CN(C(=O)c3ccco3)C[C@]1([H])CN(c1ccccn1)C2` | -0.1711% |
| `Cc1cnn(CC2CN(CC(=O)Nc3nnc(C)s3)CCO2)c1` (stereo not drawn) | 7.914% |
| `CC(C)c1n[nH]c(C(=O)Nc2ccnn2C(C)C)c1Br` | 92.02% and 87.97% and 88.19% |
| `CCS(=O)(=O)c1ccccc1N1CCC(NC(=O)C2CC2)CC1` | 14.05% |
| `Cc1nc(C)c(C(C)NCc2cnc(N3CCOCC3)nc2)s1.Cl` (stereo not drawn) | 14.97% |
| `Cl.Nc1ccc(-c2cnc(C3CCCN3)cn2)cn1` (stereo not drawn) | -2.115% |
| `CN(C)c1ccc(NC(=O)N2CCCC2c2ccsc2)cn1` (stereo not drawn) | 49.17% and 42.91% and 35.46% |
| `CSc1nccn1-c1cccc(C(=O)NCCC(=O)NC(C)C)c1` | 0.3798% |
| `CC[C@@H]1N(Cc2cc(OC)cc(OC)c2)CCC[C@]12CCC(=O)N2C` | -1.986% |
| `COc1c(CNCC(O)c2ccccc2)c(C(C)C)nn1C` (stereo not drawn) | -4.932% |
| `Cc1nnc(CN(Cc2ccccc2Cl)C2CCCC2)o1` | -13.52% and -16.54% |
| `Cn1ccnc1CN1CCN(Cc2cc(C#N)ccc2F)CC1` | -9.774% |
| `CCOc1cc(Cl)ccc1CNC(=O)c1ccc(=O)n(C)c1` | 1.99% |
| `CN(CCCOc1ccccc1)Cc1nc2c(cnn2C)c(=O)[nH]1` | 1.07% |
| `CO[C@H]1CCN(S(=O)(=O)c2cccs2)[C@H]1Cc1ccncc1` | 6.734% |
| `Cl.FC(F)CNc1cnc(C2CCCN2)cn1` (stereo not drawn) | 4.56% |
| `CCc1nnc(CN2CCC(N3CCN(CC)C3=O)CC2)o1` | 7.449% |
| `CCn1cnnc1CNC(=O)N1CCC(CN2CCCCCC2)CC1` | 4.778% |
| `Cl.Fc1ccc(F)c(CN2CCC(c3cc4ncccc4cn3)CC2)c1` | -1.471% and 10.12% and 0.7529% |
| `O=C(O)C(F)(F)F.[H][C@@]12CCN(Cc3cccc(C#N)c3)[C@@]1([H])CC(=O)N2CCOC` | -5.421% |
| `O=C(O)C(F)(F)F.O=C([C@H]1CCCO1)N1CCCC2(CCN(Cc3ccncc3)C2=O)C1` (stereo partly drawn) | 5.028% |
| `c1ccc(C2CCCN(c3cncc(-n4cccn4)n3)CC2)cc1` (stereo not drawn) | -18.33% |
| `O=C(CN1CCC(c2ccnn2CCO)CC1)NCC1CCCCC1` | 3.451% |
| `CCc1nc(C)c(C(=O)N2CCCN(Cc3cnn(C)c3)CC2)s1` | 2.23% |
| `[H][C@]12CN(c3ncc(F)cn3)C[C@@]1([H])S(=O)(=O)CC[C@@H]2C(=O)N(C)C` | -3.376% |
| `Cc1noc(C(C)C)c1C(=O)NS(=O)(=O)c1ccc(Cl)cc1` | -2.593% |
| `COc1ccc(C(CNC(=O)NCc2csc(C)n2)N(C)C)cc1` (stereo not drawn) | -14.97% and 45.93% and -2.002% |
| `CCc1ccc(CN2CCOC(Cc3cccc(F)c3)C2)nc1` (stereo not drawn) | -1.99% |
| `N#Cc1c(C2CCOC2)cc(-c2ccc(N3CCCCC3)cc2)nc1N` (stereo not drawn) | 29.44% and 63.96% and 52.39% |
| `O=C(c1ccncc1)N1CCCC1c1nc(O)cc(-c2ccccn2)n1` (stereo not drawn) | 2.265% |
| `CNC(=O)NCC1CCC2(CCN(c3ncccn3)CC2)CO1` (stereo not drawn) | 2.998% |
| `Cn1cc(CC2CCN(C(=O)NCc3cn4ccsc4n3)C2)cn1` (stereo not drawn) | -19.73% |
| `CC(C)c1cc(NC(=O)CN2CCCC2Cn2cncn2)on1` (stereo not drawn) | -0.8079% |

8 of the entries, repeated:

With c1cnc(-c2nc(CN3CCCC(N4CCCC4)C3)cs2)nc1 (stereo not drawn) the screen gave 5.451%.
With CC1CCc2nn(CCNC(=O)C3CCCC3)c(=O)cc2C1 (stereo not drawn) the screen gave -3.334% and 0.06458% and 1.43%.
With C=Cn1ncc(CN2CCc3nc(-c4ccncc4)nc(O)c3C2)c1C the screen gave -10.34%.
With O=C(O)C(F)(F)F.[H][C@@]12CCN(CCc3ccccc3)C[C@]1([H])O[C@@H](C(=O)NCCOC)C2 the screen gave -5.122%.
With Cc1cnn(CC2CCCCN2C(=O)c2ccc3nncn3c2)c1 (stereo not drawn) the screen gave -1.84%.
With Cc1nc(C)c(C(C)NCc2cnc(N3CCOCC3)nc2)s1.Cl (stereo not drawn) the screen gave 14.97%.
With CCn1cnnc1CNC(=O)N1CCC(CN2CCCCCC2)CC1 the screen gave 4.778%.
With CC(C)c1cc(NC(=O)CN2CCCC2Cn2cncn2)on1 (stereo not drawn) the screen gave -0.8079%.